Experimental data: PubChem BioAssay AID1259424 (University of Nebraska Medical Center, 2018)
Assay: 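Find knockdowns that reproduce the expression shifts seen after KSR1 loss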 (primary screen). Cells: human HCT116 colon cancer cells. Reagents: siRNA pool against human genes, 50 nM. Read-out: 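Log2 levels of six mRNAs (branched-DNA multiplex), adjusted by two reference genes and the non-targeting median, then scored against the average KSR1 knockdown pattern as Pearson r and euclidean distance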. Direction: mean correlation with KSR1 profile and KSR1 correlation: higher = expression change more like KSR1 knockdown; mean distance from KSR1 profile: higher = expression change less like KSR1 knockdown.
This is an unselected part of about 14,000 reagents. 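Higher correlation or smaller distance means closer resemblance to KSR1 loss; control wells, including KSR1 knockdowns, recur on many plates.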 Not given: the time to read-out.

Gene | mean correlation with KSR1 profile | mean distance from KSR1 profile | KSR1 correlation, replicate 1 | KSR1 correlation, replicate 2 | KSR1 correlation, replicate 3
OR12D2 | 0.306 | 3.16 | 0.462 | 0.56 | 0.217
GAGE1 | -0.341 | 2.38 | -0.388 | -0.438 | -0.18
GLTP | -0.34 | 4.27 | -0.59 | -0.231 | -0.155
ABHD14A | -0.57 | 1.15 | 0.144 | -0.946 | -0.131
PTCH1 | -0.161 | 1.29 | -0.141 | -0.0433 | -0.172
CASP6 | 0.512 | 1.19 | -0.377 | 0.8 | 0.425
UROS | -0.323 | 1.02 | 0.22 | -0.0598 | -0.689
LINC01749 | -0.59 | 1.88 | -0.603 | -0.494 | -0.542
MAN1C1 | -0.151 | 3.32 | -0.338 | 0.0503 | 0.227
DLEU2 | 0.352 | 3.53 | 0.472 | 0.153 | 0.267
NHSL3 | -0.079 | 2.4 | -0.117 | -0.108 | -0.101
RPS6KA4 | 0.502 | 1.63 | 0.437 | 0.679 | -0.124
SYT13 | -0.757 | 1.89 | -0.656 | -0.817 | -0.789
BIN3-IT1 | 0.273 | 1.56 | 0.299 | 0.124 | -0.0391
MSRB2 | 0.28 | 1.08 | 0.326 | 0.0582 | 0.371
PURA | 0.00835 | 1.94 | 0.61 | 0.117 | -0.0642
CPXCR1 | 0.0437 | 3.06 | 0.0403 | 0.0321 | 0.23
SERPINI2 | -0.0511 | 2.09 | -0.055 | -0.136 | 0.0246
ADGRF4 | 0.457 | 1.5 | 0.274 | 0.474 | 0.551
COX5A | -0.336 | 1.02 | -0.695 | 0.384 | -0.0702
PMCHL2 | 0.0442 | 1.8 | 0.182 | 0.139 | -0.0274
GPHN | 0.523 | 0.888 | 0.574 | 0.396 | 0.522
POU5F1 | -0.402 | 2.15 | -0.423 | -0.385 | -0.411
ZNF350 | -0.749 | 2.24 | -0.772 | -0.744 | -0.696
MUTYH | -0.806 | 2.15 | -0.455 | -0.561 | -0.942
GTF3C2 | -0.274 | 1.99 | -0.506 | -0.515 | -0.355
COX15 | 0.178 | 3 | 0.019 | 0.359 | 0.304
NMD3 | -0.146 | 1.42 | -0.567 | -0.417 | -0.416
LRBA | 0.634 | 1.39 | 0.669 | 0.455 | 0.673
CCND3 | -0.468 | 3.03 | -0.405 | -0.62 | -0.544
CBX3 | -0.0564 | 1.72 | 0.207 | -0.0876 | 0.00728

Sorted by “KSR1 correlation, replicate 1” (low to high): some entries from above
Gene | mean correlation with KSR1 profile | mean distance from KSR1 profile | KSR1 correlation, replicate 1 | KSR1 correlation, replicate 2 | KSR1 correlation, replicate 3
LINC01749 | -0.59 | 1.88 | -0.603 | -0.494 | -0.542
CASP6 | 0.512 | 1.19 | -0.377 | 0.8 | 0.425
MAN1C1 | -0.151 | 3.32 | -0.338 | 0.0503 | 0.227
PTCH1 | -0.161 | 1.29 | -0.141 | -0.0433 | -0.172
UROS | -0.323 | 1.02 | 0.22 | -0.0598 | -0.689
DLEU2 | 0.352 | 3.53 | 0.472 | 0.153 | 0.267

Further entries follow:
Gene | mean correlation with KSR1 profile | mean distance from KSR1 profile | KSR1 correlation, replicate 1 | KSR1 correlation, replicate 2 | KSR1 correlation, replicate 3
SLC18A2 | -0.271 | 1.9 | -0.23 | -0.225 | -0.289
MCTS1 | -0.198 | 1.88 | -0.458 | -0.117 | -0.345
APRT | 0.137 | 2.48 | -0.056 | 0.156 | 0.279
LRP3 | -0.254 | 2.12 | -0.376 | -0.23 | -0.297
ADAM2 | -0.749 | 2.65 | -0.613 | -0.668 | -0.936
WRAP73 | 0.257 | 6.01 | 0.275 | 0.39 | -0.376
SLC25A3 | 0.334 | 0.796 | 0.616 | 0.817 | -0.603
FAM111A | -0.72 | 3.04 | -0.723 | -0.621 | -0.729
TRAPPC2 | 0.657 | 1.71 | 0.498 | 0.716 | 0.738
ADA2 | 0.451 | 5.06 | 0.46 | 0.357 | 0.485
IGFBP7 | 0.144 | 1.49 | 0.0874 | 0.902 | -0.489
PIP4K2B | 0.0565 | 2.69 | 0.173 | 0.35 | -0.172
TACR1 | 0.516 | 1.86 | 0.396 | 0.543 | 0.777
DACH2 | 0.932 | 0.919 | 0.887 | 0.963 | 0.961
TUBG1 | -0.188 | 1.68 | -0.148 | -0.0579 | -0.425
TBC1D30 | -0.437 | 2.63 | -0.272 | -0.36 | -0.538
MAP4K1 | 0.128 | 4.05 | -0.287 | 0.32 | 0.17
TRPC4AP | -0.0294 | 1.9 | 0.0929 | 0.00324 | -0.182
ATP6V0E1 | -0.423 | 3.82 | -0.332 | -0.416 | -0.404
